Experimental data as given in patent publication US20090149377.
Construct, isoform or probe ends are uncertain for at least one entry. Results from cells or extracts need not show a direct contact. For part of these data: Protein sequences can lack the tags named with them.

Columns and labels:
Assay in all cases: pull-down
[1] = system: similar to TSEP-1 (Homo sapiens); details: MCF7 extract, mass spectrometry; may be indirect; protein in an extract; label: biotin
[2] = target: ATP-dependent RNA helicase A (RHA/DDX9) (Homo sapiens) (UniProt Q08211); details: MCF7 extract, mass spectrometry; may be indirect; protein in an extract; label: biotin
[3] = target: casein kinase 1, gamma 2 (Homo sapiens) (UniProt P78368); details: MCF7 extract, mass spectrometry; may be indirect; protein in an extract; label: biotin
NSAP (Homo sapiens) = target: T1, NSAP (Homo sapiens) (UniProt O60506); details: MCF7 extract, mass spectrometry; may be indirect; protein in an extract; label: biotin
T1 sequence (looked up, limits assumed): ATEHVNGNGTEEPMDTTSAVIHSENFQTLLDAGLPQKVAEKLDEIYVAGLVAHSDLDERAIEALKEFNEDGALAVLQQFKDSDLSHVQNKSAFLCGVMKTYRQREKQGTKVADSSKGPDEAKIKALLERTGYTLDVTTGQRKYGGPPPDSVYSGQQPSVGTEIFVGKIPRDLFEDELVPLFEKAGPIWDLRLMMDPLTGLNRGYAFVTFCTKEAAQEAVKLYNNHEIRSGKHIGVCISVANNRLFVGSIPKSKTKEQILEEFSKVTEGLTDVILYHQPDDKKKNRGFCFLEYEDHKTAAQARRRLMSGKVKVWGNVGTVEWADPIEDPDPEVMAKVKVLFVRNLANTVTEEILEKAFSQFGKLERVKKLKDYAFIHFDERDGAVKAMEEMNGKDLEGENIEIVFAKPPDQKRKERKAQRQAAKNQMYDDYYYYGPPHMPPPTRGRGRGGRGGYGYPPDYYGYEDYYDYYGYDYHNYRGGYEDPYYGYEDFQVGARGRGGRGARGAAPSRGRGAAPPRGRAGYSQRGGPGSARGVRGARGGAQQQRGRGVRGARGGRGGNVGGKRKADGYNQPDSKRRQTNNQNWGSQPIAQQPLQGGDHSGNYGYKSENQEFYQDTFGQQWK

eEF1A-1 (Homo sapiens) = target: T2, eEF1A-1 (Homo sapiens) (UniProt P68104); details: MCF7 extract, mass spectrometry; may be indirect; protein in an extract; label: biotin
T2 sequence (looked up, limits assumed): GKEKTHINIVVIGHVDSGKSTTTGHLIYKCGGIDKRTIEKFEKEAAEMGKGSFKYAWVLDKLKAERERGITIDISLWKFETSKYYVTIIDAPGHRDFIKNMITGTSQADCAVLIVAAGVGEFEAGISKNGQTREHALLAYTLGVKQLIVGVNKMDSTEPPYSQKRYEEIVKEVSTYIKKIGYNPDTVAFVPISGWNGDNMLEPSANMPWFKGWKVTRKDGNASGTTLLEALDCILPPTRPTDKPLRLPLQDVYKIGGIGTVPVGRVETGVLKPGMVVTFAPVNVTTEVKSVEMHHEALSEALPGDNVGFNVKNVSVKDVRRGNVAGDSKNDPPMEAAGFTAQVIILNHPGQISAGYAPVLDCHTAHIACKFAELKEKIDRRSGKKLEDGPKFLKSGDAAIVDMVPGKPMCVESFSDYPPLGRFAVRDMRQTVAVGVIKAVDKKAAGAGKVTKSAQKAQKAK

[4] = target: T3, staufen protein (Homo sapiens) (UniProt O95793); details: MCF7 extract, mass spectrometry; may be indirect; protein in an extract; label: biotin
T3 sequence (looked up, limits assumed): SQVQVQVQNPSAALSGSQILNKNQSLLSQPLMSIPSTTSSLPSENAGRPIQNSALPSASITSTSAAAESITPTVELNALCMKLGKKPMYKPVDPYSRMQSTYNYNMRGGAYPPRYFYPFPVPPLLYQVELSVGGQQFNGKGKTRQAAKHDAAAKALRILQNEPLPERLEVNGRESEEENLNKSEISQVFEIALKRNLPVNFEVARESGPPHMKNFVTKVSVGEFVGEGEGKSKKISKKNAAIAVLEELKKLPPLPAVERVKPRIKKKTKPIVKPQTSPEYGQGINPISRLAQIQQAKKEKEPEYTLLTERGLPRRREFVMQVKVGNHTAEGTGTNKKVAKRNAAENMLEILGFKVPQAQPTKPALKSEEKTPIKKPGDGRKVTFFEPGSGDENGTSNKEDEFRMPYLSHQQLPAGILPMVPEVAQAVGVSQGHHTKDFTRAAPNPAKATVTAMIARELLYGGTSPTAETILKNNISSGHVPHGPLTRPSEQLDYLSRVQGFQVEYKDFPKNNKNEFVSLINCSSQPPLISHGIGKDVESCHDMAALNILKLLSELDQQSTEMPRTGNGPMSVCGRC

Gemin5 (Homo sapiens) = Gemin5 (Homo sapiens) (UniProt Q8TEQ6); details: MCF7 extract, mass spectrometry; may be indirect; protein in an extract; label: biotin
[5] = target: IGF-II mRNA-binding protein 3 (IMP-3) (Homo sapiens) (UniProt O00425); details: MCF7 extract, mass spectrometry; may be indirect; protein in an extract; label: biotin
[6] = system: heat shock cognate protein 54 (HSC54) (Homo sapiens); details: MCF7 extract, mass spectrometry; may be indirect; protein in an extract; label: biotin
tuberin (Homo sapiens) = tuberin (Homo sapiens) (UniProt P49815); details: MCF7 extract, mass spectrometry; may be indirect; protein in an extract; label: biotin
[7] = target: transcription factor NF-AT (Homo sapiens) (UniProt Q12905); details: MCF7 extract, mass spectrometry; may be indirect; protein in an extract; label: biotin
Ku80 (Homo sapiens) = Ku80 (Homo sapiens) (UniProt P13010); details: MCF7 extract, mass spectrometry; may be indirect; protein in an extract; label: biotin
[8] = target: zinc-finger DNA-binding protein (Homo sapiens) (UniProt Q13029); details: MCF7 extract, mass spectrometry; may be indirect; protein in an extract; label: biotin
[9] = system: hepatocellular carcinoma autoantigen (Homo sapiens); details: MCF7 extract, mass spectrometry; may be indirect; protein in an extract; label: biotin
[10] = target: TRBP isoform a (Homo sapiens) (UniProt Q15633); details: MCF7 extract, mass spectrometry; may be indirect; protein in an extract; label: biotin
RPL26 (Homo sapiens) = RPL26 (Homo sapiens) (UniProt P61254); details: MCF7 lysate; binding increased after irradiation; protein in an extract; label: biotin
PKR (Homo sapiens) = PKR (Homo sapiens) (UniProt P19525); details: MCF7 extract, mass spectrometry; may be indirect; protein in an extract; label: biotin
hnRNPU (Homo sapiens) = hnRNPU (Homo sapiens) (UniProt Q00839); details: MCF7 extract, mass spectrometry; may be indirect; protein in an extract; label: biotin
YB-1 (Homo sapiens) = YB-1 (Homo sapiens) (UniProt P67809); details: MCF7 extract, mass spectrometry; may be indirect; protein in an extract; label: biotin
[11] = target: CSDA protein (Homo sapiens) (UniProt P16989); details: MCF7 extract, mass spectrometry; may be indirect; protein in an extract; label: biotin
[12] = system: translation control protein 80 (TCP80) (Homo sapiens); details: MCF7 extract, mass spectrometry; may be indirect; protein in an extract; label: biotin
HRX (Homo sapiens) = HRX (Homo sapiens) (UniProt Q03164); details: MCF7 extract, mass spectrometry; may be indirect; protein in an extract; label: biotin
[13] = target: T4, GTP-binding like protein 2 (Homo sapiens) (UniProt Q9BX10); details: MCF7 extract, mass spectrometry; may be indirect; protein in an extract; label: biotin
T4 sequence (looked up, limits assumed): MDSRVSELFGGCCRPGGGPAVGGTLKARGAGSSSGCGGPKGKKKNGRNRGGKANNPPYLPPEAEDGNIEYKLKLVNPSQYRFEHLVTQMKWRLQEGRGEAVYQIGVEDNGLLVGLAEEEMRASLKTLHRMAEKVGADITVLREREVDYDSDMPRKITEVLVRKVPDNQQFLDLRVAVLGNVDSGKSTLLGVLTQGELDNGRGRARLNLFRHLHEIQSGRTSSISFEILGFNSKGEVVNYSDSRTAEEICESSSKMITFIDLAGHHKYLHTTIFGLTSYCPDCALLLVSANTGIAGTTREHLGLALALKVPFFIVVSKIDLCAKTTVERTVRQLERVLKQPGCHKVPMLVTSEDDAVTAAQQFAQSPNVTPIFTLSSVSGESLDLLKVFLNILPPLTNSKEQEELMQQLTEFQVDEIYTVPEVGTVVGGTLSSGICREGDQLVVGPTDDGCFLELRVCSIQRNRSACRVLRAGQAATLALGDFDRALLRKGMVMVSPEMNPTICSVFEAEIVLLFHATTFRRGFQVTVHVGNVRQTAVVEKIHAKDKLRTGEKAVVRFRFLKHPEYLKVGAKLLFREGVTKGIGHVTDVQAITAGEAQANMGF

Ku70 (Homo sapiens) = Ku70 (Homo sapiens) (UniProt P12956); details: MCF7 extract, mass spectrometry; may be indirect; protein in an extract; label: biotin
nucleolin (Homo sapiens) = nucleolin (Homo sapiens) (UniProt P19338); details: MCF7 extract; direct binding not distinguished from complex; unchanged after IR; protein in an extract; label: biotin
[14] = target: transcription intermediary factor 1-beta (Homo sapiens) (UniProt Q13263); details: MCF7 extract, mass spectrometry; may be indirect; protein in an extract; label: biotin
[15] = target: ribonucleoprotein La (Homo sapiens) (UniProt P05455); details: MCF7 extract, mass spectrometry; may be indirect; protein in an extract; label: biotin

Measured: binding result

GGUUUUCCCCUCCCAUGUGCUCAAGACUGGCGCUAAAAGUUUUGAGCUUCUCAAAAGUCUAGAGCCACCGUCCAGGGAGCAGGUAGCUGCUGGGCUCCGGGGACACUUUGCGUUCGGGCUGGGAGCGUGCUUUCCACGACGGUGACACGCUUCCCUGGAUUGGCAGCCAGACUGCCUUCCGGGUCACUGCCAU [p53 5'UTR (biotinylated)]
binds: all assays above
